According to patent US12036190B2, “Methods and compositions for the treatment of cytoplasmic glycogen storage disorders” (Duke University, priority 2015, dated 2024):
“Also recorded” adds a separate entry of the source. For at least one compound, name, drawing or mass did not settle the structure.

Tested on: G6pc−/− knockout mice
Experiment: Bezafibrate treatment of G6pc−/− mice
Format: in vivo
Settings: 5 day old mice, livers collected 3 days later; versus vehicle

## CC(C)(Oc1ccc(CCNC(=O)c2ccc(Cl)cc2)cc1)C(=O)O [Bezafibrate, bezafibrate]
  LC3-II in liver (LC3-II/β-actin): increased LC3-II significantly; also recorded: not significant; also recorded: increases autophagosome number
